In publication PMC6848931:
Results are given in words; binding and its absence hold for the method and conditions named. In cells and extracts the contact can be indirect.

Sequences of proteins named here, by UniProt entry; tags and fusion partners are left off. A change or cut given only in a name is not applied to a line headed by its entry. A line that says so, or that is headed by a name, gives the form on record, which may keep a tag or linker.
UniProt O00571: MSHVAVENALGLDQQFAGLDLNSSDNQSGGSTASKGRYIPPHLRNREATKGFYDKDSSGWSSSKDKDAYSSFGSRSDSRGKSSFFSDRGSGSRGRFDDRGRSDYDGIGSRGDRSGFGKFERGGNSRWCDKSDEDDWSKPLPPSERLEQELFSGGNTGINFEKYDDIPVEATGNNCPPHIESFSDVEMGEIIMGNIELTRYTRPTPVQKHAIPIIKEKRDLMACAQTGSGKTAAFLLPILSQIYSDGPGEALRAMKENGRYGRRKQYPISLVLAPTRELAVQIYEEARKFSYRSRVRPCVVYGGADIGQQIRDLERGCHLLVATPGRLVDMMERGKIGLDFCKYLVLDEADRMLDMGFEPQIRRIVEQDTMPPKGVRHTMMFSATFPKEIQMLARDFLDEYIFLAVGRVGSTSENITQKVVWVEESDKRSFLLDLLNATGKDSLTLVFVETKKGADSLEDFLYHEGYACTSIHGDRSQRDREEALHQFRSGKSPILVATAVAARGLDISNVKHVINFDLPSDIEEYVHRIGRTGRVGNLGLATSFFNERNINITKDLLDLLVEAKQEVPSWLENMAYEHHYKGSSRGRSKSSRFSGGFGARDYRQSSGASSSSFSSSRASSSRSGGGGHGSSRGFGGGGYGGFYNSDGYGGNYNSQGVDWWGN
mCherry-DDX3X(qmNESα) (full length) (O00571, form named): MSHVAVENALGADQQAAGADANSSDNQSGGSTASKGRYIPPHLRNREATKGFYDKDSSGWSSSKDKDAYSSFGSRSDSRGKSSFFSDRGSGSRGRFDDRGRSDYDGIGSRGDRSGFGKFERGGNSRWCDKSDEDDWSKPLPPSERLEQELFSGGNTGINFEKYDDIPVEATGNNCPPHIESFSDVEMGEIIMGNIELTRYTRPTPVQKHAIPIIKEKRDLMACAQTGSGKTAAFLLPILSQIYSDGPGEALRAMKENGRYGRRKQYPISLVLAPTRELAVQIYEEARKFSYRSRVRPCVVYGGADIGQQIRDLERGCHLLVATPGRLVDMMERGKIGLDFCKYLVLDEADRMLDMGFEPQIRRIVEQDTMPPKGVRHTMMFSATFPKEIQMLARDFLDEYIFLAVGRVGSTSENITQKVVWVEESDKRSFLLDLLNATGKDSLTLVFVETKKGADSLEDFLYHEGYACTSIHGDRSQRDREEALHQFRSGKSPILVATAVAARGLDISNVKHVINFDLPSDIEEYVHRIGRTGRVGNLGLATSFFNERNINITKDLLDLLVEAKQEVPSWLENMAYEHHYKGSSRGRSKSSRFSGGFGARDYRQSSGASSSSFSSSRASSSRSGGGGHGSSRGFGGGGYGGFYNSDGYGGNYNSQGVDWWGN

Biological target: mCherry-DDX3X(qmNESα) (full length) (human) (UniProt O00571)
Experiment: co-IP; anti-mCherry antibody on Protein G magnetic resin; lysate of FACS-sorted HEK-293T cells in 20 mM Tris-Cl pH 7.4, 150 mM NaCl, 0.1% IPEGAL with RNaseA; 30 min at 4 °C; immunoblot for endogenous proteins

“endogenous exportin-1 (from UniProt O14980 1-1071) (receptor)” was tested, and the binding was “no binding”.
